From patent CN114149501A
No constants are given. Whether binding was seen depends on the method and setting. Some binding calls cover weakened binding; strength is not graded here.

Protein sequences, listed by entry. Tags and fused reporters are not part of them. Lines headed by an entry give the natural chain unless they say otherwise; changes in a name come on top. Residues count along the entry.
UniProt P01031, residues 19-1676: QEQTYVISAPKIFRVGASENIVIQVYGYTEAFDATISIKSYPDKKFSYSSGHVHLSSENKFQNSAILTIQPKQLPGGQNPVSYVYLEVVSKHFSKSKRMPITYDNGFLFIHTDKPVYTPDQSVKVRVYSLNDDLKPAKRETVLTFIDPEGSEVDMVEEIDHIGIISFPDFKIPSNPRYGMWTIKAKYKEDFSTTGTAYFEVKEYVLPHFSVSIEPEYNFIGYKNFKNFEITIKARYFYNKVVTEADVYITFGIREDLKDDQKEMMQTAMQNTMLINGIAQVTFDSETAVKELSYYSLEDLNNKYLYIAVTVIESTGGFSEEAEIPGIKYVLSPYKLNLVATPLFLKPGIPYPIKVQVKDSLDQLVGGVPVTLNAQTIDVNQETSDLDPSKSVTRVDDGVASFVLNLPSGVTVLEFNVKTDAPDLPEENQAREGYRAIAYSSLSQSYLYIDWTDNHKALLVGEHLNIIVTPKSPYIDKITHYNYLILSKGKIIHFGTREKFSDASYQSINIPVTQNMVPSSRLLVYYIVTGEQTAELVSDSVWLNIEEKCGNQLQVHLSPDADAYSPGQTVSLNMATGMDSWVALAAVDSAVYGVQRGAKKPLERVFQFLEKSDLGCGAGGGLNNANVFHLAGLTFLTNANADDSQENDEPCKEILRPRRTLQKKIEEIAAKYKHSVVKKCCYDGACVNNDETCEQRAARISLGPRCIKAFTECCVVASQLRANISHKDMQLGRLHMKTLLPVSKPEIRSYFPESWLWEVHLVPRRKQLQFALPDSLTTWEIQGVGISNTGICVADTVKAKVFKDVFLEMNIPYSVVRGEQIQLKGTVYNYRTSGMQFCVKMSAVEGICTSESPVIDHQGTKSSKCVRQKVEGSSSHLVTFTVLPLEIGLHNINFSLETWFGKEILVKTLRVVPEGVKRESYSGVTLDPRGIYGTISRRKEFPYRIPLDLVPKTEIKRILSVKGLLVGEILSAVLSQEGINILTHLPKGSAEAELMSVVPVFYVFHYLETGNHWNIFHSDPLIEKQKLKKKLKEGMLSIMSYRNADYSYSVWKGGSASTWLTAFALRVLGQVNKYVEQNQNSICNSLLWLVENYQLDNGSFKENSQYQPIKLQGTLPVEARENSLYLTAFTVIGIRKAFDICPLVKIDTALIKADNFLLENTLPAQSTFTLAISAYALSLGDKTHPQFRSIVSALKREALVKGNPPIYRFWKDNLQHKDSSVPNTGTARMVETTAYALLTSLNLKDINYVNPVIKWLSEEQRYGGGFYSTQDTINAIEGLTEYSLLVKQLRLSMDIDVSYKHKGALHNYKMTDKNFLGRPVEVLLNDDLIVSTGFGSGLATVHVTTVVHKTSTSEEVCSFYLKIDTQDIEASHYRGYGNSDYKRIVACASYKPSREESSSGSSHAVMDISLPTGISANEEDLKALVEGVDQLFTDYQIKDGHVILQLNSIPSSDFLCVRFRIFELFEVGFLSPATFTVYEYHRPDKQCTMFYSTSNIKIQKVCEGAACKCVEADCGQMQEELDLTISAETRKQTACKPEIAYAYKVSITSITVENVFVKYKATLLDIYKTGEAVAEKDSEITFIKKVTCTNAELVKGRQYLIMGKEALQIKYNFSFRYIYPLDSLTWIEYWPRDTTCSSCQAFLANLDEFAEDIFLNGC

B1: CR3#24/IgG4 (antibody, V domains shown)
VH: EVQLVQSGAEVKKPGAAVKISCKVSGYTFTDYYMHWVQQAPGKGLEWMGVVDPEDGEIIYAEKFQGRITITADTSTDTVYMELSSLRSEDTAVYYCARSDYGAGSYMVDPWGQGTLVTVSS
VL: SYVLTQPPSVSVTPGKTARIACGGNNLESKIVSWYQQKPGQAPVLVIFYDTDRPSGISERFSGSNSGNTATLTISRVEAGDEADYYCQVWDSNSDHVIFGGGTKLTVLG
B2: CR3#30/IgG4 (antibody, V domains shown)
VH: QVQLVESGAEVKKPGASVKVSCKASGYTFTSYYMHWVRQAPGQGLEWMGIINPSGGSTSYAQKFQGRVTMTRDTSTSTVYMELSSLRSEDTAVYYCARGTVDDAFDIWGQGTMVTVSS
VL: QSALTQPPSASGSPGQSVTISCTGTSSDVGGYDLVSWYQQHPGKAPKLMIYDVSKRPSGVPDRFSGSKSGNTASLTVSGLQADDEADYYCSSFADSNNWEVVFGGGTKLTVLG

Molecular target: 人源重组C5蛋白 (Sino Biologica, Cat#13416-H18H) (human) (UniProt P01031)
Experiment: direct ELISA, C5 coated at 1 μg/mL, anti-Fc-HRP detection

Row | Binder | binding
1 | B1 | binds
2 | B2 | binds
